This is an account of results in paper PMC3861474, “From PII Signaling to Metabolite Sensing: A Novel 2-Oxoglutarate Sensor That Details PII - NAGK Complex Formation” (PLoS ONE, 2013).

Assay [1] addresses T1, N-acetyl-L-glutamate kinase (NAGK), His-tagged wild type (Synechococcus elongatus) (UniProt Q6V1L5).
T1 sequence: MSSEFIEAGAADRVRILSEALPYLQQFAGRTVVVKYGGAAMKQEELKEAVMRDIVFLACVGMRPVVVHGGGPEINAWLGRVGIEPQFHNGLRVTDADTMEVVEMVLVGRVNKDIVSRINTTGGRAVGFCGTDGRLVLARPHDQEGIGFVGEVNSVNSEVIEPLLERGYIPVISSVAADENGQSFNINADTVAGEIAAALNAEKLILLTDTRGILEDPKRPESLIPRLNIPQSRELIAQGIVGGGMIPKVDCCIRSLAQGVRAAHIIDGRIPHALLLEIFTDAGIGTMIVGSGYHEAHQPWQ
Put plainly: SPR; BIAcore X; His-tagged NAGK-wt (30 nM hexamer) bound to Ni2+-loaded NTA chip to ~1500 RU; PII variants injected as analyte; control flow cell subtracted; both purified. On the technique in general: In SPR one partner is held on a chip, and binding of the other changes the refractive index at the surface.

Assay [2] concerns the target T2, NAGK‑FL25‑C (NAGK fused by a flexible 25-residue linker to Cerulean) (Synechococcus elongatus) (UniProt Q6V1L5).
T2 sequence: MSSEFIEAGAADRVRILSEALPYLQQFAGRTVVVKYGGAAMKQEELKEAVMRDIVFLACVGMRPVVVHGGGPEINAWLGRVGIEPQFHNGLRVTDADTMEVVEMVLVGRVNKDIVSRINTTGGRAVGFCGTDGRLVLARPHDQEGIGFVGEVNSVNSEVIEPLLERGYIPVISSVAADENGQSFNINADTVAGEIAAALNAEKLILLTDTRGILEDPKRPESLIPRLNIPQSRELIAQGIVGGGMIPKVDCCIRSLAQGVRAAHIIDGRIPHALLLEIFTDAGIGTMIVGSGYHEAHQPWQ
Put plainly: FRET or BRET; association kinetics: FRET ratio (525 nm / 475 nm emission) every 8 s, excitation 433 nm; NAGK-FL25-C preincubated at 37 °C, then PII-Venus variant added; 100 nM proteins; 0.1 mM ATP; ratio not background-subtracted (0.54 is the zero baseline); both purified. On the technique in general: In BRET a luciferase serves as donor, and the signal depends on an acceptor being close.

The target in assay [3] is T2, NAGK‑FL25‑C (NAGK fused by a flexible 25-residue linker to Cerulean) (Synechococcus elongatus). Put plainly: FRET or BRET; emission spectra 445-640 nm, excitation of Cerulean at 433 nm; NAGK-Cerulean fusions with equimolar PII-Venus fusions (100 nM); spectra corrected for Venus emission without FRET; 50 mM imidazole pH 7.5, 50 mM KCl, 20 mM MgCl2, 0.5 mM DTT, 0.1 mM ATP; both purified.

No constants are given. Whether binding was seen depends on the method and setting. Sequences can lack the tags named with a protein.

B1: PII-S49G‑E85A‑ST‑V (PII S49G E85A double mutant, Strep-tag as linker, Venus) (protein, UniProt P0A3F4 1-112)
chain: MKKIEAIIRPFKLDEVKIALVNAGIVGMTVSEVRGFGRQKGQTERYRGGEYTVEFLQKLKLEIVVEDAQVDTVIDKIVAAARTGAIGDGKIFVSPVDQTIRIRTGEKNADAI
For B1, the binding result is listed as “no binding” in assay [1], “no binding (tested: 100 nM)” in assay [2] and “no binding (tested: 100 nM)” in assay [3].
